Test results: US20110202328A1, “System for the determination of selective absorbent molecules through predictive correlations” (ExxonMobil Research and Engineering Company, priority 2009, published 2011)

assay: Experimental H2S selectivity of the new dataset of 22 compounds; conditions: at the loading printed per compound in column 'Loadings in %'

Going from CC(C)(C)NCCOCCO [Compound 1] to CC(C)(C)NCCOCCNC(C)(C)C [Compound 2], the “Experimental Selectivity values” rises from 15.4 to 16.7.

Compared with CC(C)(C)NCCNC(C)(C)C [Compound 3], CC(C)(C)NCS(=O)(=O)[O-].[Na+] [Compound 4] is lower in “Experimental Selectivity values”: 26.2 for the first, 14.4 for the second.

Compared with CC(C)(C)NCCS(=O)(=O)[O-].[Na+] [Compound 5], CC(C)(C)NCCCS(=O)(=O)[O-].[Na+] [Compound 6] is lower in “Experimental Selectivity values”: 34.9 for the first, 20.4 for the second.

Going from CC(C)(C)NCCCS(=O)(=O)O [Compound 7] to CC(C)(C)NCCP(=O)(O)O [Compound 8], the “Experimental Selectivity values” falls from 1.2 to 0.6.

Compared with CC(C)(C)NCCCP(=O)(O)O [Compound 9], CC(C)(C)NCCCP(=O)([O-])[O+]=[K] [Compound 10] is higher in “Experimental Selectivity values”: 0.4 for the first, 84.5 for the second.

First: CC(C)(C)NCCCCP(=O)(O)O [Compound 11]
Second: CC(C)(C)NCCO [Compound 17]
The “Experimental Selectivity values” of the first is lower: 0.8 for the first, 26.7 for the second.

First: CC(C)(C)N(CCO)CCO [Compound 18]
Second: CC(C)(C)NCC(O)CO (stereo not drawn) [Compound 19]
The “Experimental Selectivity values” of the first is lower: 49.8 for the first, 78.9 for the second.

Compared with CC(C)(C)NCOCCOCCO [Compound 20], CC(C)(C)NCCOCCOCCO [Compound 21] is higher in “Experimental Selectivity values”: 56.01 for the first, 75.4 for the second.

Compared with CC(C)(C)NCOCCOCCOCCO [Compound 22], N—Bu4^+ OH^- [Compound 16] is lower in “Experimental Selectivity values”: 64.4 for the first, 35.9 for the second.

First: N—Et4^+ OH^− [Compound 14]
Second: N—Me4^+ OH^− [Compound 13]
The “Experimental Selectivity values” of the first is lower: 70.7 for the first, 107.5 for the second.

In the case of N—Pr4^+ OH^− [Compound 15], the “Experimental Selectivity values” is reported as 78.7.
